Measurements reported in publication PMC5426754.
No constants are given. Whether binding was seen depends on the method and setting. Some entries that bind do so weakly or less than the wild type.

Biological target: Ezrin N-ERMAD (N-terminal ERM domain, FERM domain, Met1-Lys296) (human) (UniProt P15311)
Assay: other fluorescence titration; steady-state tryptophan fluorescence; 2 μM ezrin construct titrated with S100 protein; 20 mM HEPES pH 7.5, 150 mM NaCl, 0.5 mM TCEP, 1 mM CaCl2; 25°C; quadratic binding equation; both purified

binding: binds weakly
B1: S100B (protein, UniProt P04271 1-92)
chain: MSELEKAMVALIDVFHQYSGREGDKHKLKKSELKELINNELSHFLEEIKEQEVVDKVMETLDNDGDGECDFQEFMAFVAMVTTACHEFFEHE
